Part of at least one peptide drawing is inferred or uncertain, most often the ends.
How the values were obtained:
CD8+ T cells [1] = test: Cellular uptake of T-EXO by T cells according to pH; assay type: cell-based, mouse; settings: 2 μM peptide pretreated at pH 7.4 or 6.5, FIG. 6D
CD8+ T cells [2] = test: Cellular uptake of T-EXO by T cells (confocal); assay type: cell-based, mouse; settings: compared to untreated and NH-D peptide-treated T-EXO, FIG. 5D
CD8+ T cells [3] = test: In vitro T cell analysis (CFSE, cytokines, Ki-67, Grz-B); assay type: cell-based, mouse
[4] = tested on: surface-adsorbed DOPC liposomes; test: Liposome disruption activity (QCM-D)
CAF cells = test: In vitro activation of CAF cells; assay type: cell-based, mouse; settings: FIG. 11B
[5] = tested on: murine melanoma B16F10 cell-derived T-EXO; test: In vitro T-EXO disruption by NTA and TEM, B16F10 cell-derived T-EXO
[6] = tested on: binding ability of PD-L1EXO to PD-1; test: PD-1/PD-L1 binding analysis (ELISA); design: species or system murine; settings: T-EXO from plasma of B16F10 tumor-bearing mouse, 3 μM peptide 10 minutes, FIG. 5C
[7] = tested on: B16F10 tumor-bearing mice; test: In vivo antitumor efficacy in B16F10 tumor-bearing mice; design: species or system C57BL/6 mouse
B16F10 cells = test: In vitro migration analysis (transendothelial migration); assay type: cell-based, mouse; settings: T-EXO treated with peptide, compared to NH-D peptide-treated group, FIG. 11A
[8] = tested on: B16F10 cells lung metastasis; test: In vivo anti-metastasis test (T-EXO-mediated pre-metastatic niche); design: species or system C57BL/6 mice; settings: lungs extracted 4 weeks after administration, FIG. 11D
[9] = compared to untreated or NH-D peptide-treated T-EXO, FIG. 5H
[10] = compared to saline-treated or NH-D peptide-treated mouse, FIG. 9B

CC[C@@H](C)[C@@H](NC(=O)[C@@H](Cc1c[nH]c2ccccc12)NC(=O)[C@@H](CC(=O)O)NC(=O)[C@@H](Cc1c[nH]c2ccccc12)NC(=O)[C@H](NC(=O)[C@@H](CC(=O)O)NC(=O)[C@@H](CCCNC(=N)N)NC(=O)[C@@H](CC(C)C)NC(=O)[C@@H](Cc1c[nH]c2ccccc12)NC(=O)[C@@H](CO)NC(=O)CNC(=O)[C@H](N)CO)C(C)C)C(=O)N[C@H](CS)C(=O)N[C@@H](C(=O)N[C@@H](C(=O)N[C@H](CC(C)C)C(=O)N[C@@H](C(=O)N[C@H](CC(=O)O)C(=O)N[C@H](Cc1ccccc1)C(=O)N[C@H](CCCCN)C(=O)N[C@@H](C(=O)N[C@H](Cc1c[nH]c2ccccc12)C(=O)N[C@H](CC(C)C)C(=O)N[C@H](CCC(N)=O)C(=O)N[C@H](CO)C(=O)N[C@H](CCCCN)C(=O)N[C@H](CC(C)C)C(N)=O)[C@H](C)O)[C@H](C)O)C(C)C)[C@H](C)O [AH-D peptide]
cellular uptake of peptide-treated T-EXO (confocal) (CD8+ T cells [1]): decreased
T cell uptake of peptide-treated T-EXO (CD8+ T cells [2]): significantly reduced
CD8+ T cell proliferation (CD8+ T cells [3]; T cells exposed to peptide-treated T-EXO, flow cytometry, FIG. 5F): high proliferation potential similar to normally activated T cells
interferon-gamma (IFN-γ) production (CD8+ T cells [3]; [9]): produced
tumor necrosis factor-alpha (TNF-α) production (CD8+ T cells [3]; [9]): produced
Ki-67-expressing T cells (CD8+ T cells [3]; compared to untreated or NH-D peptide-treated T-EXO, FIG. 5I): further increased
peptide-induced liposome rupture time ([4]; as peptide concentration increased, various pH, FIG. 3D): decreased
QCM-D resonance frequency and energy dissipation changes (membrane disruption) by pH ([4]; pH 6.5 and 6.8 vs pH 7.4, FIGS. 3E, 3F): a wider range of membrane disruption was shown under an acidic condition
peptide binding cooperativity ([4]; various pH, phenomenological model, FIG. 3G): greater at pH 6.5
expression of S100A4 (CAF cells; T-EXO treated with peptide vs T-EXO alone, confocal): significantly reduced
number of pro-migratory CAF cells (CAF cells; T-EXO treated with peptide, Giemsa staining): significantly decreases
T-EXO disruption according to peptide concentration ([5]; FIG. 2G): as the concentration of the AH-D peptide increases, a higher T-EXO disruption effect was exhibited
T-EXO disruption in transmission electron microscopy images ([5]; FIG. 2I): causes T-EXO disruption
T-EXO disruption according to pH ([5]; pH 6.5 and 6.8 compared with pH 7.4, FIG. 2F): T-EXO disruption was enhanced under acidic pH conditions
PD-1 binding ability of T-EXO [6]: significantly reduced to the level of EXO isolated from the plasma of a wild-type mouse
circulating PD-L1EXO level ([7]; AH vs saline-treated group, AH+aPD-1 vs aPD-1 group, FIG. 10A): decreased
tumor fibrosis and angiogenesis (α-SMA, fibronectin, CD31 staining) ([7]; FIG. 9I): prevented fibrosis and angiogenesis
effect on tumor growth profile ([7]; compared to saline-treated control, FIGS. 9D and 9E): a little effect
intratumoral population of CD4+CD25+ regulatory T cells (Tregs) [7, 10]: significantly reduced
intratumoral population of CD11b+Gr-1+ bone marrow-derived suppressor cells (MDSCs) [7, 10]: significantly reduced
reduction of TGF-β expression level in tumor ([7]; compared to tumor of saline-treated mouse, FIG. 9B): approximately 40%
reduction of level of PD-L1EXO circulating in vivo ([7]; peptide therapy alone, compared to physiological saline-treated group, FIG. 9A): approximately 76%
inhibition of transendothelial migration of B16F10 cells (B16F10 cells): 35%
lung metastasis [8]: low lung metastasis

— patent publication US20230113262A1, “Peptide for cancer immunotherapy rupturing tumor-derived vesicle and use thereof” (RESEARCH & BUSINESS FOUNDATION SUNGKYUNKWAN UNIVERSITY, priority 2021, published 2023)
